According to PubChem BioAssay AID493014 (National Center for Advancing Translational Sciences (NCATS), 2011):
Screen size: about 340,000 compounds; about 170 (0.05%) were called active. Inconclusive results, whose numbers are uncertain, are shown with a selection of clear calls. The call rests on the fitted dose curve; in most records, active means well fitted inhibition curve with a large enough effect in the signal ratio, with a control signal flat (not every such curve was filed as active); inconclusive means small, poorly fitted or top-dose-only effect, or effect the other way, or a change in a side signal; inactive means flat fitted curve, though single readings scatter; the % refers to the signal ratio. A potency beside an inconclusive call is a rough fit, not a confirmed value.

Test: qHTS Assay to Find Inhibitors of Chronic Active B-Cell Receptor Signaling;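 on activity change, negative = inhibition: plate controls were basal doxycycline-induced cells for no effect and cells given 10 µM MG132 for full effect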
Conditions: ABC-DLBCL IkBa-CBG/CBR reporter, luminescence ratio (green luciferase fused to IkBa over red control in TMD8 lymphoma cells), 4 h; activity change, negative = inhibition: at 46.1 µM (top of the series)
In short: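 Concentration-response series (up to 46 uM) were applied to TMD8 dual-reporter cells for 4 h at 37C with doxycycline. Green/red ratio, after filter-overlap correction, defined %Activity; red signal alone was normalised to basal cells and zero luminescence.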
Potency means the concentration at half of the fitted maximal effect.

SMILES	Potency	activity change, negative = inhibition
COc1ccccc1NS(=O)(=O)c1cc(NC(=O)c2[nH]c(C)c(C(C)=O)c2C)ccc1N1CCOCC1	inconclusive: 11.2 µM [falling, partial curve, poor fit]	
COC1CCCCC1Nc1ccc(C)c(C)c1 (stereo not given)		inconclusive: -15.6%
CC(C)c1ccc(C(C)NCCS(=O)(=O)c2ccc(Cl)cc2)cc1 (stereo not given)	inconclusive: 28.2 µM [falling, single point]	
COc1ccc(C(=O)NC(=S)NCc2ccccc2)cc1OC		inactive
Cc1cccc(C(=O)NNc2ncnc3c2cnn3-c2ccc(C)c(Cl)c2)c1		inactive
Cn1c(SCC(=O)Nc2ccc3c(c2)OCCO3)nnc1-c1ccncc1		inactive
O=C(Nc1ccc2c(c1)CCC2)c1c(F)cccc1Cl		inactive
O=C(O)c1ccc2c(c1Nc1ccccc1)C(=O)c1ccccc1C2=O	inconclusive: 17.8 µM [rising, partial curve]	
O=C(O)c1ccc2c(c1)C(=O)N(CCCCCCCN1C(=O)c3ccc(C(=O)O)cc3C1=O)C2=O	inconclusive: 14.1 µM [falling, partial curve]	
COc1cc(-c2c(C#N)c(N)nc(SCc3ccncc3)c2C#N)cc(OC)c1OC		inconclusive: -11.3%
COc1cccc(NS(=O)(=O)c2cc3c(cc2C)N(C(C)=O)CCO3)c1		inconclusive: 2.85%
CC(C)(C)C(=O)Nc1nnc(SCc2ccc(F)cc2)s1		inactive
Cc1cc(NC(=O)c2cc(-c3cccs3)on2)no1		inconclusive: -28.7%
Cc1ccc(-c2n[nH]c(S(C)(=O)=O)c2C#N)cc1		inconclusive: 13.9%
CCc1ccc(CN(C)Cc2nc(COc3ccccc3)no2)nc1		inconclusive: 6.34%
CCOc1ccccc1Nc1sc(C(=O)c2ccc(Cl)cc2)c(N)c1S(=O)(=O)c1ccccc1		inconclusive: -2.15%
FC(F)(F)c1ccc(Nc2nnnc3ccccc23)cc1		inconclusive: 4.46%
CCC(C)Nc1nc2c(c(=O)n(C)c(=O)n2C)n1Cc1ccc(F)cc1 (stereo not given)		inconclusive: 8.4%
Cc1ccccc1NC(=O)C(=Cc1ccc(C(=O)O)cc1)C(=O)Nc1ccccc1C	inconclusive: 11.2 µM [falling, partial curve]	
COc1ccc(N2Cc3ccc(OC)c(OC)c3C2=O)cc1	inconclusive: 25.1 µM [falling, single point]	
Cc1nnc(NC(=O)CSc2nc(C3CCCCC3)nc3ccccc23)s1	inconclusive: 0.58 µM [falling, partial curve, poor fit]	
CCOc1ccccc1Oc1nc(C)nc2c1oc1ccccc12	active: 12.6 µM	
Fc1cccc(Nc2cc(-n3cccn3)ncn2)c1		inconclusive: -15.8%
CCCN=CC1=C(O)CC(c2ccccc2)CC1=O (stereo not given)		inconclusive: -27.8%
CC1CC(C)CN(C(=O)c2ccc(CSc3nc4ccncc4[nH]3)cc2)C1 (stereo not given)		inconclusive: 0.656%
CCOc1ccc2oc(=O)cc(CN3CCN(C(=O)c4ccco4)CC3)c2c1		inactive
CC(C)=CCC/C(C)=C/COc1c2occc2cc2ccc(=O)oc12		inconclusive: 3.85%

SMILES	Potency	activity change, negative = inhibition
COC(=O)c1[nH]c2ccccc2c1NC(=O)CN1CCC(C(N)=O)(N2CCCCC2)CC1		inconclusive: 8.01%
Cc1nc2ncnn2c(C)c1CCC(=O)O		inactive
COc1ccc([C@H]2CC(=O)C=C(c3ccccc3)C2)cc1		inactive
C/C(=N\NC(=O)c1cc(C)oc1C)c1ccc2ccccc2c1	inconclusive: 12.6 µM [falling, partial curve, poor fit]	
O=C(NC1CCCCCCC1)C1CCC(CNc2c(N3CCCC3)c(=O)c2=O)CC1 (stereo not given)		inconclusive: 7.47%
O=C(Cc1cccs1)NC1CCCC1		inconclusive: 7.62%
C#CCOc1ccc2c3c(c(=O)oc2c1)CCCC3		inconclusive: 4.8%
O=C(Nc1nc2ccc(Cl)cc2s1)c1ccc(N2CCCCC2)c([N+](=O)[O-])c1		inconclusive: 1.43%
OC(CN1CCc2ccccc2C1)c1ccccc1 (stereo not given)		inactive
COc1ccc(-c2csc3ncnc(N4CCN(S(=O)(=O)c5ccc(C)cc5)CC4)c23)cc1		inactive
Cc1ccccc1NC(=S)N1CCN(c2ccccc2Cl)CC1		inactive
Cc1cc(NS(=O)(=O)c2ccc(NC(=O)C(C)Oc3ccc(Cl)cc3)cc2)no1 (stereo not given)		inconclusive: 14.3%
Cn1c(=O)c2c(nc(N/N=C/c3ccc(OC(=O)c4ccco4)cc3)n2Cc2ccc(F)cc2)n(C)c1=O		inconclusive: 21.2%
Cn1c(C(C#N)C2=C(Cl)C(=O)N(c3ccccc3)C2=O)nc2ccccc21 (stereo not given)		inconclusive: 2.39%
Cc1ccc(NC(=O)CSc2nnc(CNC(=O)c3ccccc3F)o2)cc1Cl		inconclusive: -6.79%
Cc1ccc(C2C(C#N)=C(N)Oc3n[nH]c(-c4cccnc4)c32)o1 (stereo not given)		inconclusive: 10.3%
Cc1ccc(-n2c(SCC(=O)Nc3ncc(Cl)cc3Cl)nc3ccccc32)cc1		inconclusive: -6.86%
O=C(c1ccc(F)cc1)c1cc2ccccc2o1		inconclusive: 9.9%
COc1ccc(NC(=O)/C=C/c2ccc3c(c2)OCO3)cc1		inconclusive: -11.2%
CCCCC1CCC(C(=O)OCC(=O)N(CCOC)c2c(N)n(Cc3ccccc3)c(=O)[nH]c2=O)CC1 (stereo not given)		inactive
COc1ccc(CNC(=O)c2cccc(NC(=O)CC3SC(N4CCCCC4)=NC3=O)c2)cc1 (stereo not given)	inconclusive: 25.9 µM [falling, partial curve, poor fit]	
COc1ccc(/C=C/C(=O)N(Cc2cccs2)C2CCS(=O)(=O)C2)cc1 (stereo not given)		inconclusive: 0.701%
Cc1ccccc1Nc1nc2ccccc2n1C(C)C		inactive
CC1C(=O)Nc2ccc(S(=O)(=O)N3CCN(c4cccc(C(F)(F)F)c4)CC3)cc2NC1=O (stereo not given)		inactive
COc1ccc(C(=O)OCC(=O)Nc2ccc3[nH]c(=O)[nH]c3c2)c(OC)c1OC	inconclusive: 23.1 µM [falling, partial curve, poor fit]	
CCn1cc(C(=O)NCCCN2CCC(C)CC2)c(=O)c2cc(S(=O)(=O)N3CCCC3)ccc21		inconclusive: 4.05%
COc1ccc(F)cc1C(=O)C1CCCN(Cc2cccn2-c2cccnc2)C1 (stereo not given)		inactive

By substructure, the compounds so far with a CF3 group
SMILES	Potency	activity change, negative = inhibition
FC(F)(F)c1ccc(Nc2nnnc3ccccc23)cc1		inconclusive: 4.46%
CC1C(=O)Nc2ccc(S(=O)(=O)N3CCN(c4cccc(C(F)(F)F)c4)CC3)cc2NC1=O (stereo not given)		inactive

Later entries

SMILES	Potency	activity change, negative = inhibition
CC(=O)N1c2ccc(S(=O)(=O)N3CCC(C(=O)Nc4cc(C)cc(C)c4)CC3)cc2CC1C (stereo not given)		inconclusive: -0.324%
CCOC(=O)Nc1ccc2c(CN3C(=O)NC(CC)(CC)C3=O)cc(=O)oc2c1	inconclusive: 16.4 µM [falling, partial curve]	
Cc1ccccc1CN(CC(=O)Nc1cccc([N+](=O)[O-])c1)S(=O)(=O)c1ccc(Cl)cc1		inconclusive: 12.6%
Cc1ccc(/C=C2\SC(=S)N(CCC(=O)NNC(=O)c3ccc(O)cc3)C2=O)cc1	inconclusive: 22.4 µM [falling, partial curve]	
O=C1CC(Cc2ccccc2)C(=O)N1Cc1ccco1 (stereo not given)		inconclusive: -2.55%
COCc1cc(=O)n2[nH]c(SCc3ccccc3)nc2n1	inconclusive: 3.66 µM [falling, partial curve]	
O=S(=O)(N/N=C\c1ccc2c(c1)OCO2)c1ccc(F)cc1		inactive
Brc1ccc(Cn2c(-c3cncs3)nc3ccccc32)cc1		inconclusive: -14.8%
O=C(Cc1ccc(F)cc1)Nc1c(C(=O)N2CCN(c3ncccn3)CC2)oc2ccccc12		inactive
CCOc1cccc(-c2c(C(=O)N/N=C/c3ccsc3)nnn2-c2nonc2N)c1		inconclusive: -0.0625%
OC(C#CCN1CCCC1)(c1ccccc1)c1cccnc1 (stereo not given)	inconclusive: 2.24 µM [falling, partial curve, poor fit]	
COc1cc(NC(=O)C2CCCCC2)c2ncccc2c1	inconclusive: 7.31 µM [rising, partial curve, poor fit]	
O=C(N/N=C/c1ccc(N2CCOCC2)cc1)c1ccccc1OCCOc1ccccc1	inconclusive: 12.6 µM [falling, partial curve]	
COc1ccc(-c2nc3c(c(=O)[nH]c(=O)n3Cc3ccccc3)n2CCO)cc1		inconclusive: 3.1%
COc1ccccc1CCC(=O)OCc1csc(CC(=O)Nc2ccccc2C)n1		inconclusive: -12.1%
Cc1ccc(S(=O)(=O)Nc2nc(C)c(NC(=O)OCCCl)s2)cc1		inactive
COc1cc(C(=O)N2CCN(c3cccc(C)c3C)CC2)ccc1OCC(=O)N1CCOCC1		inconclusive: 3.01%
Cc1nc2cc(NC(=O)Nc3cccc4ccccc34)ccc2n1C	inconclusive: 12.6 µM [falling, partial curve]	
COC(=O)CNc1n[nH]c(=S)[nH]c1=O		inactive
Cc1ccc(OCC(=O)NNC(=O)C2CSC3(C)CCC(=O)N23)cc1C (stereo not given)	inconclusive: 10.3 µM [falling, partial curve, poor fit]	
CNS(=O)(=O)c1cccc(C(=O)OCc2cc(=O)oc3c(C)c(O)ccc23)c1	inconclusive: 35.5 µM [falling, single point]	
O=C(CSc1nnc(Nc2ccccc2)s1)Nc1cccc(S(=O)(=O)N2CCCCC2)c1	inconclusive: 10.3 µM [falling, partial curve]	
CN(CC(=O)O)S(=O)(=O)c1cc(Cl)ccc1Cl	inconclusive: 7.31 µM [rising, partial curve, poor fit]	
CCCN1CCC(NC(=O)c2cccc(Oc3ccccc3)c2)CC1		inactive
CC(NC(=S)Nc1ccc(S(=O)(=O)N2CCOCC2)cc1)C1CC2CCC1C2 (stereo not given)		inconclusive: -9.09%
Cc1cc(NC(=O)C2CCCN(S(=O)(=O)c3cnc[nH]3)C2)ccc1Br (stereo not given)	inconclusive: 18.4 µM [falling, single point]	
